From the supplement of paper PMC6078165
The reference is the same well before dosing, and untreated signal decays as well.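 Labels refer to human fibroblasts, largely primary: uterine (C12385, HUF), lung (H6013), bone (Hs27A), adrenal (HADF), skin (WS1), plus mammary HMF and breast cancer-associated Hs343T. Cancer lines are basal-like or mesenchymal-like triple-negative breast cancer. The paper counts as hits responses shifting over 3x the replicate standard deviation. The tissue of the other fibroblasts is not given here.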

System: BT20
Test: relative JC-1 red fluorescence (viability) vs pre-drug, coculture with fibroblast (fraction); higher = more viable cancer cells
Protocol: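 JC-1 labelled TNBC cells cocultured 1:1 (1,500 cells each) with CellTrace Violet stained primary or stromal fibroblasts in 384-well plates in FluoroBrite medium, treated with one of 42 anticancer drugs at 0.1, 1, 10 or 100 uM. JC-1 red fluorescence (mitochondrial integrity in cancer cells only) was read by plate reader every 8 h for 72 h. Values are normalised to each well's pre-drug value. The stock of one drug was tenfold lower, so its dose labels may be too high.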

CO[C@H]1C[C@@H]2CC[C@@H](C)[C@@](O)(O2)C(=O)C(=O)N2CCCC[C@H]2C(=O)O[C@H]([C@H](C)C[C@@H]2CC[C@@H](O)[C@H](OC)C2)CC(=O)[C@H](C)/C=C(\C)[C@@H](O)[C@@H](OC)C(=O)[C@H](C)C[C@H](C)/C=C/C=C/C=C/1C [Rapamycin]
relative JC-1 red fluorescence
Conditions | 8 h | 16 h | 24 h | 32 h | 40 h | 48 h | 56 h | 64 h | 72 h
10 µM, coculture fibroblast: C12385 | 0.826 | 0.81 | 0.84 | 0.841 | 0.804 | 0.787 | 0.755 | 0.722 | 0.705
10 µM, coculture fibroblast: H6013 | 0.853 | 0.857 | 0.924 | 0.854 | 0.88 | 0.859 | 0.822 | 0.881 | 0.779
10 µM, coculture fibroblast: H6019 | 0.7783 | 0.691 | 0.677 | 0.6581 | 0.645 | 0.651 | 0.656 | 0.661 | 0.674
10 µM, coculture fibroblast: H6076 | 0.844 | 0.961 | 0.925 | 0.909 | 0.888 | 0.848 | 0.824 | 0.805 | 0.765
10 µM, coculture fibroblast: H6231 | 0.861 | 0.802 | 0.891 | 0.866 | 0.972 | 0.925 | 0.895 | 0.84 | 0.801
10 µM, coculture fibroblast: HADF | 0.9156 | 0.861 | 0.834 | 0.824 | 0.8892 | 0.85 | 0.748 | 0.872 | 0.971
10 µM, coculture fibroblast: HCFa | 0.927 | 0.895 | 0.783 | 0.75 | 0.807 | 0.821 | 0.839 | 0.833 | 0.811
10 µM, coculture fibroblast: HCPF | 0.876 | 0.9797 | 0.9471 | 0.906 | 0.856 | 0.812 | 0.759 | 0.734 | 0.677
10 µM, coculture fibroblast: HHSteC | 0.886 | 0.878 | 0.908 | 0.869 | 0.848 | 0.824 | 0.797 | 0.779 | 0.758
10 µM, coculture fibroblast: HMF | 0.893 | 0.934 | 0.889 | 0.859 | 0.8274 | 0.774 | 0.737 | 0.696 | 0.66
10 µM, coculture fibroblast: HPFa | 0.93 | 0.783 | 0.839 | 0.758 | 0.764 | 0.757 | 0.765 | 0.861 | 0.805
10 µM, coculture fibroblast: HUF | 0.881 | 0.869 | 0.893 | 0.854 | 0.818 | 0.775 | 0.744 | 0.7202 | 0.706
10 µM, coculture fibroblast: Hs5 | 0.795 | 0.922 | 0.962 | 0.942 | 0.897 | 0.864 | 0.812 | 0.784 | 0.761
10 µM, coculture fibroblast: Hs27A | 0.905 | 0.904 | 0.876 | 0.829 | 0.959 | 0.838 | 0.945 | 0.88 | 0.892
10 µM, coculture fibroblast: Hs343T | 0.941 | 0.954 | 0.902 | 0.86322 | 0.854 | 0.815 | 0.745 | 0.74 | 0.694
10 µM, coculture fibroblast: WS1 | 0.78938 | 0.7194 | 0.721 | 0.704 | 0.68 | 0.665 | 0.648 | 0.624 | 0.606
100 µM, coculture fibroblast: C12385 | 0.831 | 0.852 | 0.836 | 0.907 | 0.892 | 0.829 | 0.742 | 0.659 | 0.564
100 µM, coculture fibroblast: H6013 | 0.958 | 0.678 | 0.561 | 0.453 | 0.362 | 0.333 | 0.374 | 0.406 | 0.426
100 µM, coculture fibroblast: H6019 | 0.924 | 0.812 | 0.856 | 0.72 | 0.752 | 0.68 | 0.768 | 0.736 | 0.675
100 µM, coculture fibroblast: H6076 | 0.96 | 0.749 | 0.635 | 0.599 | 0.559 | 0.489 | 0.486 | 0.483 | 0.476
100 µM, coculture fibroblast: H6231 | 0.808 | 0.876 | 0.854 | 0.905 | 0.901 | 0.857 | 0.738 | 0.638 | 0.551
100 µM, coculture fibroblast: HADF | 0.801 | 0.912 | 0.765 | 0.638 | 0.545 | 0.502 | 0.549 | 0.611 | 0.635
100 µM, coculture fibroblast: HCFa | 0.934 | 0.7577 | 0.723 | 0.627 | 0.492 | 0.389 | 0.406 | 0.428 | 0.463
100 µM, coculture fibroblast: HCPF | 0.869 | 0.766 | 0.751 | 0.682 | 0.716 | 0.616 | 0.599 | 0.6 | 0.564
100 µM, coculture fibroblast: HHSteC | 0.892 | 0.703 | 0.579 | 0.444 | 0.34 | 0.295 | 0.321 | 0.35 | 0.378
100 µM, coculture fibroblast: HMF | 0.852 | 0.765 | 0.615 | 0.551 | 0.506 | 0.432 | 0.422 | 0.379 | 0.325
100 µM, coculture fibroblast: HPFa | 0.954 | 0.906 | 0.762 | 0.646 | 0.57 | 0.484 | 0.517 | 0.562 | 0.598
100 µM, coculture fibroblast: HUF | 0.793 | 0.576 | 0.507 | 0.386 | 0.329 | 0.341 | 0.375 | 0.39 | 0.399
100 µM, coculture fibroblast: Hs5 | 0.948 | 0.706 | 0.618 | 0.522 | 0.445 | 0.38 | 0.344 | 0.336 | 0.362
100 µM, coculture fibroblast: Hs27A | 0.784 | 0.851 | 0.933 | 0.89 | 0.828 | 0.684 | 0.681 | 0.753 | 0.781
100 µM, coculture fibroblast: Hs343T | 0.943 | 0.698 | 0.499 | 0.4 | 0.336 | 0.259 | 0.239 | 0.22 | 0.241
100 µM, coculture fibroblast: WS1 | 0.924 | 0.843 | 0.815 | 0.755 | 0.7124 | 0.837 | 0.712 | 0.627 | 0.519
